Source: doi:10.1101/2023.08.16.553474
Results are given in words; binding and its absence hold for the method and conditions named. In cells and extracts the contact can be indirect. Here binding means that the protein was enriched with, or labelled near, the bait; the list need not be complete.

Sequences of proteins named here, by UniProt entry; tags and fusion partners are left off.
UniProt P04198: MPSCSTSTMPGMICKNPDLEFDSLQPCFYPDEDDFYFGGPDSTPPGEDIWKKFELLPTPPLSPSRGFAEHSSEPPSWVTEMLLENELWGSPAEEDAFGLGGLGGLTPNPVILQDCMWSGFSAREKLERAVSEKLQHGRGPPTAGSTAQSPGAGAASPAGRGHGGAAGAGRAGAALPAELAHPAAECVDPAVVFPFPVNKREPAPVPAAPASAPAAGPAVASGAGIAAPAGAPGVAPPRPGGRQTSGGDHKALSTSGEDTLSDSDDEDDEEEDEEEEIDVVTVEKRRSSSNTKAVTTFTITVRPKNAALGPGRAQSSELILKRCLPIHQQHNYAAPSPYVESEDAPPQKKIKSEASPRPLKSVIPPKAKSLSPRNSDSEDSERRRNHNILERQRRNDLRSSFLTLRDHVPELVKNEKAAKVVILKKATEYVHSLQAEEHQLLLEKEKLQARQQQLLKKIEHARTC
UniProt Q9Y4A5: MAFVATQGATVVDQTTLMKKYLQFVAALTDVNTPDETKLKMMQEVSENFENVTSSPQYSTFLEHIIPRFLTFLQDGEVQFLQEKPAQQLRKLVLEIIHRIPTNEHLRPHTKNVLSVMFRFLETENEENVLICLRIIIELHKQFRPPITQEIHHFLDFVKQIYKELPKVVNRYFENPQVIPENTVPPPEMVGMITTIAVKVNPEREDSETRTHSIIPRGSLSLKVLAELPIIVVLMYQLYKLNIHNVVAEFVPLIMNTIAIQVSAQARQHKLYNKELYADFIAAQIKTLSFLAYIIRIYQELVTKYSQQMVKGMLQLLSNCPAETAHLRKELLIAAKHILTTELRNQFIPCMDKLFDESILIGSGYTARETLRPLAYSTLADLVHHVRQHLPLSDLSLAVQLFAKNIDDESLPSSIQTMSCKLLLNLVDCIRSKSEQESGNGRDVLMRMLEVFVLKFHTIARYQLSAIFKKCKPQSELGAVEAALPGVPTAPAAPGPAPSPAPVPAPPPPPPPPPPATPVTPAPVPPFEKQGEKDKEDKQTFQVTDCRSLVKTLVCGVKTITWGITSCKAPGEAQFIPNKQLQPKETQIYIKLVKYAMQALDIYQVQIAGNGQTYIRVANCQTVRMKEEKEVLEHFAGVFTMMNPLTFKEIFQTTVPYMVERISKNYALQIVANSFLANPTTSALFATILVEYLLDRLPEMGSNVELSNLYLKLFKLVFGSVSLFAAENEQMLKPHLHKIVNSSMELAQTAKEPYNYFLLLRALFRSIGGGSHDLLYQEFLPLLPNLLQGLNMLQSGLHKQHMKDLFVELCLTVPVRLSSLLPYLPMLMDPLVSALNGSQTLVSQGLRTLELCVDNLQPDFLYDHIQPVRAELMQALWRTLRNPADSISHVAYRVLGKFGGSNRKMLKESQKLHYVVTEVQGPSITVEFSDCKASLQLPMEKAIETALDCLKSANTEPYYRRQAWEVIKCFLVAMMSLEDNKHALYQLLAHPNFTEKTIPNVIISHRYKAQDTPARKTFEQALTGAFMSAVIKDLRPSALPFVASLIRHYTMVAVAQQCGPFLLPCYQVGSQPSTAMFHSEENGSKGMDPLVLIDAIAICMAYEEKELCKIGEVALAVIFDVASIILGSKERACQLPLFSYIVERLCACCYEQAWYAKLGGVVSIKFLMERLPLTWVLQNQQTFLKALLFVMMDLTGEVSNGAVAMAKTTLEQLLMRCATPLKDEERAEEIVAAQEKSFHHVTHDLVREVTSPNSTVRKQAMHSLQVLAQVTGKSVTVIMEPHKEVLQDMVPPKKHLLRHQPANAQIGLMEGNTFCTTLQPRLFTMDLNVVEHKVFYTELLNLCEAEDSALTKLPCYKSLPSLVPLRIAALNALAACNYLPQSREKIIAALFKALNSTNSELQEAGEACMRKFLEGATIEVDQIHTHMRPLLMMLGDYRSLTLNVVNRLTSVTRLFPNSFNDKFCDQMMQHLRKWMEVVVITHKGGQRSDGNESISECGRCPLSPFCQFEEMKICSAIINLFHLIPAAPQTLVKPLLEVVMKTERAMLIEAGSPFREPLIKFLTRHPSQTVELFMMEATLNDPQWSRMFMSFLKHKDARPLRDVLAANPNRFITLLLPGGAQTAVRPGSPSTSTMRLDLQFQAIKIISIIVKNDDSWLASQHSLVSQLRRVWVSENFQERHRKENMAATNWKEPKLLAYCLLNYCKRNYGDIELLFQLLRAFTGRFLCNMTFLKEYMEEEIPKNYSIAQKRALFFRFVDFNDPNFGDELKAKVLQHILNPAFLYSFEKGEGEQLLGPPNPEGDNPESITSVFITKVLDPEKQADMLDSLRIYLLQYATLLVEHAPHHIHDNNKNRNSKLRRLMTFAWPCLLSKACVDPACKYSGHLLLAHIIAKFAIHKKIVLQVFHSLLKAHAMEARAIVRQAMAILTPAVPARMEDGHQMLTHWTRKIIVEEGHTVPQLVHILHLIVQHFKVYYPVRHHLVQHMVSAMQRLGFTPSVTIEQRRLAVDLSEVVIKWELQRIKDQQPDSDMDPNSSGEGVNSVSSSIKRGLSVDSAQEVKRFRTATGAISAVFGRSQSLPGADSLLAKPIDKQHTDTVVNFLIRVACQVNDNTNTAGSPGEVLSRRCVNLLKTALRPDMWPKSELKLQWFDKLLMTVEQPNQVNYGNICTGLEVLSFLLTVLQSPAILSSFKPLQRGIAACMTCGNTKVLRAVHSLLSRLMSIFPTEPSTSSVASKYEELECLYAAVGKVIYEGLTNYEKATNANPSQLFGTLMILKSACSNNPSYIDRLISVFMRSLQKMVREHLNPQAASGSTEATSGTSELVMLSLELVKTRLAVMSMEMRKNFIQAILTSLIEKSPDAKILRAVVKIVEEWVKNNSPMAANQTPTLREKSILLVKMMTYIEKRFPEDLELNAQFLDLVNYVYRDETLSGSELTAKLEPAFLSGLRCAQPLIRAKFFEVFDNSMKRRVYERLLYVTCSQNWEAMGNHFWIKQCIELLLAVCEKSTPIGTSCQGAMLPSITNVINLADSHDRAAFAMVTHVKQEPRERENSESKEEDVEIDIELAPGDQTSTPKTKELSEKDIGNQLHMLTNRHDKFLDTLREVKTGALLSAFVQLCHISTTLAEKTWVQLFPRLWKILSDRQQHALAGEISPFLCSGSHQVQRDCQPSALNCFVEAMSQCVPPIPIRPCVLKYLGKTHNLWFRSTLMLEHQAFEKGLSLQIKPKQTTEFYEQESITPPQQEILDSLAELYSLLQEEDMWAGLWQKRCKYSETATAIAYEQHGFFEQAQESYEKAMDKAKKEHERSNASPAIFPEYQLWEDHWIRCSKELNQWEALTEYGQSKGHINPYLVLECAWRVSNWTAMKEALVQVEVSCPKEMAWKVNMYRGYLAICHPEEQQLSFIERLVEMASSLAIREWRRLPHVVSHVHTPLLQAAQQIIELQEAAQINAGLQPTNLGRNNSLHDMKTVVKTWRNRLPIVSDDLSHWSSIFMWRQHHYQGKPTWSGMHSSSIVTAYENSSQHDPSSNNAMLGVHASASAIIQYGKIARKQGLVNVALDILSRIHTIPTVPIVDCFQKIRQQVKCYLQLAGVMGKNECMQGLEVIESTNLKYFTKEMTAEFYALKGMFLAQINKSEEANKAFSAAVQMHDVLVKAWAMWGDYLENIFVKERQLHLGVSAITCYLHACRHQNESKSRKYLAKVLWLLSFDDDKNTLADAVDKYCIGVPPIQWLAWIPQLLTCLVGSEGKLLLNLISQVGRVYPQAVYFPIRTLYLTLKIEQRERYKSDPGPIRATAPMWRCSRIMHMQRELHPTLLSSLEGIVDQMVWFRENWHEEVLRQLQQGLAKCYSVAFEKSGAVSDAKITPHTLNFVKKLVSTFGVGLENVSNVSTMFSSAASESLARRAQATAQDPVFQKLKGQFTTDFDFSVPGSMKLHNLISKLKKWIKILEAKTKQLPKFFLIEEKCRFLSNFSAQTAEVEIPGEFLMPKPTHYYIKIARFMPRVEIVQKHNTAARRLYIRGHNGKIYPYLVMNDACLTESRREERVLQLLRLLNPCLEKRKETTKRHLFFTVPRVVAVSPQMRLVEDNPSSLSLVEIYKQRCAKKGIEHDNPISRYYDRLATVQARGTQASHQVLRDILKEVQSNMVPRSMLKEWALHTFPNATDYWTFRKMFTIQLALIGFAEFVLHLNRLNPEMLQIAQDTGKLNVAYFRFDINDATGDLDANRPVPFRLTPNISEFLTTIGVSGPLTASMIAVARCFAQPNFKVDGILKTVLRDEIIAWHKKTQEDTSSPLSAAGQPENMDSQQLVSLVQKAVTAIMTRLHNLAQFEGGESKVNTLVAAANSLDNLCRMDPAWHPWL

Target: MYCN (human (endogenous in IMR-32 and IMR-5)) (UniProt P04198)
Assay: affinity purification with mass spectrometry

binding: binds
Substance: TRRAP (from UniProt Q9Y4A5 1-3859)
